Measured values published in the supplement of paper PMC7666118.
This is one part of the list.

Sequences of proteins named here, by UniProt entry; tags and fusion partners are left off. A change or cut given only in a name is not applied to a line headed by its entry.
UniProt Q02252: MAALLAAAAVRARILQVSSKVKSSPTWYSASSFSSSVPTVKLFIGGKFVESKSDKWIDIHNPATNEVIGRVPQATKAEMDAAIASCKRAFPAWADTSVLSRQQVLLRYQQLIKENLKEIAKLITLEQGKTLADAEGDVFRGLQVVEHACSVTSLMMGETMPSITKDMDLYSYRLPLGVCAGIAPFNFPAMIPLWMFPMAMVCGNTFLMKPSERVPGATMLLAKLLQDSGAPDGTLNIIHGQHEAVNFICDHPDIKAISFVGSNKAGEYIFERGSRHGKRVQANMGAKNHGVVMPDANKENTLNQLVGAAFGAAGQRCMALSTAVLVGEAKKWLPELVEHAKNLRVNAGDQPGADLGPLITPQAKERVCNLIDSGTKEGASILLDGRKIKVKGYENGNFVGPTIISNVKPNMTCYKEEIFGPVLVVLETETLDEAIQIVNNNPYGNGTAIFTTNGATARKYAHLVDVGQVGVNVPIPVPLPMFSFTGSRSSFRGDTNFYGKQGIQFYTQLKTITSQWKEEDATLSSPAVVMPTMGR
UniProt P00352: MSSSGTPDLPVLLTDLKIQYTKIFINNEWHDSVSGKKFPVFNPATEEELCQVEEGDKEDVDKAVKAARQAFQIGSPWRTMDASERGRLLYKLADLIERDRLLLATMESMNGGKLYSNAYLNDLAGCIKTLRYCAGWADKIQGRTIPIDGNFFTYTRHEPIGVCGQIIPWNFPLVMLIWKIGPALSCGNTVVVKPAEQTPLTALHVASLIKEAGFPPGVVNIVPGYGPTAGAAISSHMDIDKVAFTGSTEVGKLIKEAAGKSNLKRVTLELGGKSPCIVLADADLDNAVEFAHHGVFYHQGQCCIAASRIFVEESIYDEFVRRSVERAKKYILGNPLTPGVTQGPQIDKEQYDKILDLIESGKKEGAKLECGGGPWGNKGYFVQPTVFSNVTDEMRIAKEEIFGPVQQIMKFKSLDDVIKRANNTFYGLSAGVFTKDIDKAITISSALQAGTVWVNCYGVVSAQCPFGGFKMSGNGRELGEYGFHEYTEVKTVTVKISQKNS
UniProt Q9Y303: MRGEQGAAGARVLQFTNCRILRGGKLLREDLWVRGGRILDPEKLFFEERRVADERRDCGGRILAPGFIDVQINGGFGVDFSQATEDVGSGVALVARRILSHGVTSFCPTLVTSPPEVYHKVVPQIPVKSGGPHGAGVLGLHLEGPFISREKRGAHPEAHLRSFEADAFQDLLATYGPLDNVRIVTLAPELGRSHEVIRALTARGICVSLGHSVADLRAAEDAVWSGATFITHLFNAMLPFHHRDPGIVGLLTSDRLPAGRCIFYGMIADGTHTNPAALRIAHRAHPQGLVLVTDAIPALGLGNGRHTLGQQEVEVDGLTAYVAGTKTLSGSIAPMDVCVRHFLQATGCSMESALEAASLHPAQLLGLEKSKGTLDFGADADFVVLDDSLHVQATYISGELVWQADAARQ
UniProt P62330: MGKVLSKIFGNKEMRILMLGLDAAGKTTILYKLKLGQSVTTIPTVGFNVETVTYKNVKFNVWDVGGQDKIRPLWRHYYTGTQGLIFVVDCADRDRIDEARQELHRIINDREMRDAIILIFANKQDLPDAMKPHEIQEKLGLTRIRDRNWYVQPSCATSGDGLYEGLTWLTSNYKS
UniProt Q8IV38: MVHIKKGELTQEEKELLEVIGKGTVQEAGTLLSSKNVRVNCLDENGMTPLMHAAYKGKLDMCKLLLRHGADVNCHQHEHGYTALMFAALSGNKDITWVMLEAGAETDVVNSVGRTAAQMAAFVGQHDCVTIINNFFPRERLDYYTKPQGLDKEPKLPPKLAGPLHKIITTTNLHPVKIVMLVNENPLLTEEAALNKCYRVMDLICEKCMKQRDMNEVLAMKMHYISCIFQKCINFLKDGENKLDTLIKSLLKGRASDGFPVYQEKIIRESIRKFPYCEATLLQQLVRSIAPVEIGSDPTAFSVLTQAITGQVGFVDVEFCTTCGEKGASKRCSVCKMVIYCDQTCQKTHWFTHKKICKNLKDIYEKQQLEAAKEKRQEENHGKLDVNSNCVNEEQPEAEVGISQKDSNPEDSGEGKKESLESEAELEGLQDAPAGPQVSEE
UniProt P35573: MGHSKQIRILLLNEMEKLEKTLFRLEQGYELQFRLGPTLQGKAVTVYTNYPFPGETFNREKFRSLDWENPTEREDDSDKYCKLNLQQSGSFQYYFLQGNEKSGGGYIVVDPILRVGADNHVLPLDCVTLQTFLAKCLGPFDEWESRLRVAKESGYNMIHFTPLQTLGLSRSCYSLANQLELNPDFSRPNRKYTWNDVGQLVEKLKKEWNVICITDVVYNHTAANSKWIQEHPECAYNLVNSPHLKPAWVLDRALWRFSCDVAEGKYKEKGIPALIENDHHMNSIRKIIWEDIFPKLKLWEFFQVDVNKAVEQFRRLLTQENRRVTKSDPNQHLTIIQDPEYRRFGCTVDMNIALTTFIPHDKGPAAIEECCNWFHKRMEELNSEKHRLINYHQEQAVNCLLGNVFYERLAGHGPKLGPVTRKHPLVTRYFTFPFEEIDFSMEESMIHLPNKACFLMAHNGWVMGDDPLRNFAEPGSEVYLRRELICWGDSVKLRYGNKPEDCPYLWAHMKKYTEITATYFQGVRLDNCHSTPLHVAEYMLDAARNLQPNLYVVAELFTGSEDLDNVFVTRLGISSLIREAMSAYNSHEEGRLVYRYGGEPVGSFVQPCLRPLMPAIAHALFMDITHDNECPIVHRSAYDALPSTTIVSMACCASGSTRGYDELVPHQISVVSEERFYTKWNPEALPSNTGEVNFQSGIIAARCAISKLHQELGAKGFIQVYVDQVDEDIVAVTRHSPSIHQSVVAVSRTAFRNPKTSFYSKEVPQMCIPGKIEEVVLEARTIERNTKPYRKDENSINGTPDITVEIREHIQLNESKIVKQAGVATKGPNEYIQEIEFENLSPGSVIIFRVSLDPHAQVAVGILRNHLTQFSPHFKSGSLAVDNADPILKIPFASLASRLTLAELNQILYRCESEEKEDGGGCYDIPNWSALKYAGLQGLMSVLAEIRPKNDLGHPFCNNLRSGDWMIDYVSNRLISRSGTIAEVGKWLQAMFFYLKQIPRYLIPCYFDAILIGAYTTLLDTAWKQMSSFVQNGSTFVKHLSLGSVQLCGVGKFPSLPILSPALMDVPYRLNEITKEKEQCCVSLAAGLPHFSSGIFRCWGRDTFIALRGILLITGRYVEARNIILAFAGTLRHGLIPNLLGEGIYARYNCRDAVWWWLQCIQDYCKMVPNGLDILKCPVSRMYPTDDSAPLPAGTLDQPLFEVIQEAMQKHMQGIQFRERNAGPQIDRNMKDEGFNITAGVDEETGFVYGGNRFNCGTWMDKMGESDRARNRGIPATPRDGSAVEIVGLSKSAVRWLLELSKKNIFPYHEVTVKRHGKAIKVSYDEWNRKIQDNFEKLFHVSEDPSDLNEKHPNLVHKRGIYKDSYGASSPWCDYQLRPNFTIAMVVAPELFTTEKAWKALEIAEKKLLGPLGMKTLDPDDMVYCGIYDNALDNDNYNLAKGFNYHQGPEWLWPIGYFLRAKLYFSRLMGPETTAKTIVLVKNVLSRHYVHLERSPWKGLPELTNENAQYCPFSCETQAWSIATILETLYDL
UniProt Q9UJX4, whole entry: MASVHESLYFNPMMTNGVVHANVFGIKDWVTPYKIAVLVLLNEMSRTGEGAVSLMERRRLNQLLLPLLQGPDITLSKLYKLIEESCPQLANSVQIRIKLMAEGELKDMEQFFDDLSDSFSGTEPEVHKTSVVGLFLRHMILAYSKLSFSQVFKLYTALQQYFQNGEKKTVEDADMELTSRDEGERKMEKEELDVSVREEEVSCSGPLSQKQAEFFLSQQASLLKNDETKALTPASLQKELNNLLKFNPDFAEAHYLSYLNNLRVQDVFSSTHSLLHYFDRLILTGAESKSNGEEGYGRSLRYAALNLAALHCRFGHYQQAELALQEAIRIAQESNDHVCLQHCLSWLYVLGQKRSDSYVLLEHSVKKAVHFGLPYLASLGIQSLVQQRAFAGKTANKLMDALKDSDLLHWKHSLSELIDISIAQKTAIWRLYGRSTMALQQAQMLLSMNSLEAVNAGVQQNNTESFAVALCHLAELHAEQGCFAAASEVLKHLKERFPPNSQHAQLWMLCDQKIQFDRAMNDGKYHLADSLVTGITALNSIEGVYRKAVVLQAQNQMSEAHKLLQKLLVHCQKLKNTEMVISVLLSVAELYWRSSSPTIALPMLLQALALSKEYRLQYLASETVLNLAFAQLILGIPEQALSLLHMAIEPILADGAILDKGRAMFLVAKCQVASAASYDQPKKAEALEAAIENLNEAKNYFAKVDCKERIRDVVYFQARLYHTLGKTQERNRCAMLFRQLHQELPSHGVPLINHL
UniProt Q5BKT4: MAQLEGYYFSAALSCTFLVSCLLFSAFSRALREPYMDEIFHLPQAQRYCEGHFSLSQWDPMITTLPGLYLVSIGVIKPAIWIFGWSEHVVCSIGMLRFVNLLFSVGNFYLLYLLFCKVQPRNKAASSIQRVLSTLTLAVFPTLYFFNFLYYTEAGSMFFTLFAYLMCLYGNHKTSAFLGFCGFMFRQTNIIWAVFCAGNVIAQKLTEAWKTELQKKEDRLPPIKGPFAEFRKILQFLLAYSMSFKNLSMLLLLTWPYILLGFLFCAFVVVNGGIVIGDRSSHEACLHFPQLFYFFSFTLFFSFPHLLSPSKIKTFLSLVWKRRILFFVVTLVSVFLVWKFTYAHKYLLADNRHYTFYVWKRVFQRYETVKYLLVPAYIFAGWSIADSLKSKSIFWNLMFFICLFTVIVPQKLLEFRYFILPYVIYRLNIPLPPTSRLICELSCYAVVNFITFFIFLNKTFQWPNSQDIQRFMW
UniProt Q9UM13, whole entry: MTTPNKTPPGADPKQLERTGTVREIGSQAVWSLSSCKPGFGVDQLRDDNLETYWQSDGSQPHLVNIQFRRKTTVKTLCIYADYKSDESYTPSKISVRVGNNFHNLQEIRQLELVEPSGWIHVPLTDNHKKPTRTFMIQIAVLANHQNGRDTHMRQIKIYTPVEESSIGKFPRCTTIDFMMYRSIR
UniProt Q9H553: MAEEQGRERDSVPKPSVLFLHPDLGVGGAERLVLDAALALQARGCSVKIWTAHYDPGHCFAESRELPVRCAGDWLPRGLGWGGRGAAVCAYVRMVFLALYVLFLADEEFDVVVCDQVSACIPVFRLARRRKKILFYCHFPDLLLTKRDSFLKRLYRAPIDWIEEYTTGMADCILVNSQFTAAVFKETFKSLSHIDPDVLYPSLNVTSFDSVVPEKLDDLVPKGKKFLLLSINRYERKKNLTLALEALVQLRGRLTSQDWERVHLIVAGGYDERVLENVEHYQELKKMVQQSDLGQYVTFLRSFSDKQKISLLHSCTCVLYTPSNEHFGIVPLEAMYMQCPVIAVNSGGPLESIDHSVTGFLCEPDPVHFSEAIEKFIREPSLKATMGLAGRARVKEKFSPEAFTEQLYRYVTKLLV
UniProt Q7Z6V5: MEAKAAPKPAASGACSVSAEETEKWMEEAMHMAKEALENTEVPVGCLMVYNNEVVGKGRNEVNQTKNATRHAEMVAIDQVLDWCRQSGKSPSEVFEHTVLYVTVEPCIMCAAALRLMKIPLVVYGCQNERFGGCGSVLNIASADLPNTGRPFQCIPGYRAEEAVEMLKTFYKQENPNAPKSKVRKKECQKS
UniProt Q9GZN1, whole entry: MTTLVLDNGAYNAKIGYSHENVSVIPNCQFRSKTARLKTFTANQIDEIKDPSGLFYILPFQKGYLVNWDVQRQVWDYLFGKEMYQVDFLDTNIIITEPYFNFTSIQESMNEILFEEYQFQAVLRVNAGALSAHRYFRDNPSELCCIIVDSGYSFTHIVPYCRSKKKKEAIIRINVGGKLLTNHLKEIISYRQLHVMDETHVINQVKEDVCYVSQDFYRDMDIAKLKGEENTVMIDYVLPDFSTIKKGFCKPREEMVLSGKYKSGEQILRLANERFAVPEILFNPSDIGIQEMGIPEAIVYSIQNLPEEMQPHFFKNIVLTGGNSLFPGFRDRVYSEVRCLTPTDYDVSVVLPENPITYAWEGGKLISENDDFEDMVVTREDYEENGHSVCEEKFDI
UniProt Q9NPH0: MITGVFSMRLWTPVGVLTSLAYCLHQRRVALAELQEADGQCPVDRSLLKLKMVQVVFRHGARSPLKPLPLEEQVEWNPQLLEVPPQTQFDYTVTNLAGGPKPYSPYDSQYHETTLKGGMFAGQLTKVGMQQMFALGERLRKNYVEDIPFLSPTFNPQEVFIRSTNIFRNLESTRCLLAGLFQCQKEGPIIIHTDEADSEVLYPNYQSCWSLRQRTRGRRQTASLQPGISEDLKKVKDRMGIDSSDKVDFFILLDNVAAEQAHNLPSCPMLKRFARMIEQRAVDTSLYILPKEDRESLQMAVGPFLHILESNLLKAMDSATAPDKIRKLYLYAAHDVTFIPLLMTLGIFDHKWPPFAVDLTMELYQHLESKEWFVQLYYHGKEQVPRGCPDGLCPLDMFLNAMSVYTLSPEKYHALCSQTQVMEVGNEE

Compound: COc1ccc(Cn2ccc3ccc(C(=O)NO)cc32)cc1
Experiment: dose-dependent thermal stabilisation call (2D-TPP, DLPTP, 10% FDR) (binary (1 = stabilised)); higher = stabilised by the compound
Conditions: system: HL-60 intact cells; concentration range 0.04-10 µM

| Target | dose-dependent thermal stabilisation call |
| --- | --- |
| ALDH6A1 (UniProt Q02252) | inactive: 0 |
| ALDH1A1 (UniProt P00352) | active: 1 |
| ACTR8 (UniProt Q9H981) | inactive: 0 |
| ANKRD28 (UniProt O15084) | inactive: 0 |
| AP1G2 (UniProt O75843) | inactive: 0 |
| AMDHD2 (UniProt Q9Y303) | inactive: 0 |
| AKAP11 (UniProt Q9UKA4) | inactive: 0 |
| ARF6 (UniProt P62330) | inactive: 0 |
| ANKMY2 (UniProt Q8IV38) | inactive: 0 |
| ADSS (UniProt P30520) | active: 1 |
| APOA1BP (UniProt Q8NCW5) | inactive: 0 |
| ARHGAP9 (UniProt Q9BRR9) | inactive: 0 |
| AGL (UniProt P35573) | inactive: 0 |
| ALDH1A2 (UniProt O94788) | inactive: 0 |
| ARHGEF6 (UniProt Q15052) | inactive: 0 |
| AFF1 (UniProt P51825) | inactive: 0 |
| ANAPC5 (UniProt Q9UJX4) | inactive: 0 |
| ALG10 (UniProt Q5BKT4) | inactive: 0 |
| ANAPC10 (UniProt Q9UM13) | inactive: 0 |
| AMPD3 (UniProt Q01432) | inactive: 0 |
| ALG2 (UniProt Q9H553) | inactive: 0 |
| ADAT2 (UniProt Q7Z6V5) | inactive: 0 |
| ACO2 (UniProt Q99798) | inactive: 0 |
| ACTR10 (UniProt Q9NZ32) | inactive: 0 |
| AP3D1 (UniProt O14617) | inactive: 0 |
| ACTR6 (UniProt Q9GZN1) | inactive: 0 |
| ACP6 (UniProt Q9NPH0) | inactive: 0 |

Single values from the results shown.
Entry of AKAP11 (UniProt Q9UKA4) under dose-dependent thermal stabilisation call: inactive: 0
Entry of AGL (UniProt P35573) under dose-dependent thermal stabilisation call: inactive: 0
